Measured values as given in the supplement of paper PMC12823440, “Inhibitors supercharge kinase turnover through native proteolytic circuits” (Nature, 2025).
Counter-ions that a name gives are not always drawn. This is one part of the list. Hit calls seldom repeat between salt and free forms of one compound.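 In K562 cells expressing nanoluciferase-fused kinases, luminescence was recorded at 4 h intervals between 2 and 18 h, normalized as percent of control with DMSO at 100% and a positive control at 0%. A significant (2 sigma) signal drop marks a time point as decreased. The authors' rule for a hit is not shown and takes in more than the number of time points.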

Amino acid sequences for entries named in this document (tags omitted). A change or cut given only in a name is not applied to a line headed by its entry.
UniProt P50613: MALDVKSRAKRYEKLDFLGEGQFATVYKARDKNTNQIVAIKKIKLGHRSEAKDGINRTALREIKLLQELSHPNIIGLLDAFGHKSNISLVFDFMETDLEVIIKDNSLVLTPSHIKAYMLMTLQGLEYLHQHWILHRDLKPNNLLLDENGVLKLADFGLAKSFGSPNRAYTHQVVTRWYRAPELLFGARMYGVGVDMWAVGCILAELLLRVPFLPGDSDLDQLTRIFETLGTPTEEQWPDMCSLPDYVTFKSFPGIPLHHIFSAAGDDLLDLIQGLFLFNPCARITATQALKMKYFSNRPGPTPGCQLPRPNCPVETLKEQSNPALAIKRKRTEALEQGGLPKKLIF
UniProt P50750, whole entry: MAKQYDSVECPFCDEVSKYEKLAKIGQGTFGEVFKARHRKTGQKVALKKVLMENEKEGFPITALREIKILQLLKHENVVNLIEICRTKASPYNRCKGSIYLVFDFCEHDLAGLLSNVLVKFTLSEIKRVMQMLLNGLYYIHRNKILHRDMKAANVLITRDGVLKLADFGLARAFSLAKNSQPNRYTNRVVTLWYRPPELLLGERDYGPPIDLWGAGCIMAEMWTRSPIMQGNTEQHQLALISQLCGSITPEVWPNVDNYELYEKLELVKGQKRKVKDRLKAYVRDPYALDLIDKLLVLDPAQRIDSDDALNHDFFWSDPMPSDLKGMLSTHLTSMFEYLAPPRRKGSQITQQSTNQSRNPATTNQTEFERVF
UniProt O96017, whole entry: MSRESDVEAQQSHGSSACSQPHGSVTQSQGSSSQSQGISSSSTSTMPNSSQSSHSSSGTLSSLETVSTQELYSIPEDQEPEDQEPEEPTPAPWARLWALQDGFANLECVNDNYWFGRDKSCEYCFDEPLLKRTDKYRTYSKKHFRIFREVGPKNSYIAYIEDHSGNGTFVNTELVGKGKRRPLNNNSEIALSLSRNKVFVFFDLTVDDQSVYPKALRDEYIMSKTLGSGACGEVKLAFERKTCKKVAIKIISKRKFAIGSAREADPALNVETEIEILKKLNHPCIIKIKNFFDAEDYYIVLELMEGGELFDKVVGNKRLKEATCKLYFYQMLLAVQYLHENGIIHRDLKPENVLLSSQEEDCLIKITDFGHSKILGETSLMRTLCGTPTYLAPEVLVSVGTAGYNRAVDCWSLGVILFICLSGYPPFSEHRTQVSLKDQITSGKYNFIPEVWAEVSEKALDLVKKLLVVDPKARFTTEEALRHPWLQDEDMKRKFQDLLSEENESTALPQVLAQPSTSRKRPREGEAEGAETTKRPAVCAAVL
UniProt P48729: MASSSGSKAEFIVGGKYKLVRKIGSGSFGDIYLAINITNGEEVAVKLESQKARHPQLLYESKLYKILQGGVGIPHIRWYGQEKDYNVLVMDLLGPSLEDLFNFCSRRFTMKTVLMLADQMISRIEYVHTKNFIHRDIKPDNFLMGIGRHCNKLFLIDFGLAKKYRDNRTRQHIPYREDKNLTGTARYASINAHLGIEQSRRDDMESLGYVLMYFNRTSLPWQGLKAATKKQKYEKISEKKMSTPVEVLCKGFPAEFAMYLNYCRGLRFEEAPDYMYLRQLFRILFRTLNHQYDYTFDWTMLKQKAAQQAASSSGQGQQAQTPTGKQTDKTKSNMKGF
UniProt P48730: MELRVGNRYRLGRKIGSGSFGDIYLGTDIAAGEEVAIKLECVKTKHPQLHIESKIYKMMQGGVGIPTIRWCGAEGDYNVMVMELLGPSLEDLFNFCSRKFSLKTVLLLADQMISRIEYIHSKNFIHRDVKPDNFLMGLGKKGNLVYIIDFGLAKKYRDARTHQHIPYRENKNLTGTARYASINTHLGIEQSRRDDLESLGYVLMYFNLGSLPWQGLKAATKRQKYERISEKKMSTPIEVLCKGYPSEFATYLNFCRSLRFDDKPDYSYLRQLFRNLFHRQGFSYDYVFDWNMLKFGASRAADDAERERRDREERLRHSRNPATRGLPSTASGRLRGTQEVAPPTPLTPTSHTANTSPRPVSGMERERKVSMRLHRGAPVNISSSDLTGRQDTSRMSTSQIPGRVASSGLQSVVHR
UniProt Q9Y463, whole entry, looked up: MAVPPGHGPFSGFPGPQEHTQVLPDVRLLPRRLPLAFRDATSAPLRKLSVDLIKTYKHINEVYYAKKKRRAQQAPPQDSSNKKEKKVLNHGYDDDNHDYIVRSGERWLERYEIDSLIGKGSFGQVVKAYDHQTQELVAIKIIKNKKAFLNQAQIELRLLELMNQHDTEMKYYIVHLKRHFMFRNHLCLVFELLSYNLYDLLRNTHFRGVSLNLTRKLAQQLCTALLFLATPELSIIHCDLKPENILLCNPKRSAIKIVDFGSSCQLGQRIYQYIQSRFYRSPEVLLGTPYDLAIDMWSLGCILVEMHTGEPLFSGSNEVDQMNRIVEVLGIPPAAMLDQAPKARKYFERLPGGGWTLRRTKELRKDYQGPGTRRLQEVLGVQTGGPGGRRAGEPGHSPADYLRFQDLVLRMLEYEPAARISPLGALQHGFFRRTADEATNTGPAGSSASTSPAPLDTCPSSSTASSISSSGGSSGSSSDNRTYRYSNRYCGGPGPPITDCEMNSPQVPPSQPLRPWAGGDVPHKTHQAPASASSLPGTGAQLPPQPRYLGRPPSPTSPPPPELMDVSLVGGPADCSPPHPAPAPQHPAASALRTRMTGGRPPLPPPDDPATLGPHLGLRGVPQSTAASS
UniProt P21860, whole entry: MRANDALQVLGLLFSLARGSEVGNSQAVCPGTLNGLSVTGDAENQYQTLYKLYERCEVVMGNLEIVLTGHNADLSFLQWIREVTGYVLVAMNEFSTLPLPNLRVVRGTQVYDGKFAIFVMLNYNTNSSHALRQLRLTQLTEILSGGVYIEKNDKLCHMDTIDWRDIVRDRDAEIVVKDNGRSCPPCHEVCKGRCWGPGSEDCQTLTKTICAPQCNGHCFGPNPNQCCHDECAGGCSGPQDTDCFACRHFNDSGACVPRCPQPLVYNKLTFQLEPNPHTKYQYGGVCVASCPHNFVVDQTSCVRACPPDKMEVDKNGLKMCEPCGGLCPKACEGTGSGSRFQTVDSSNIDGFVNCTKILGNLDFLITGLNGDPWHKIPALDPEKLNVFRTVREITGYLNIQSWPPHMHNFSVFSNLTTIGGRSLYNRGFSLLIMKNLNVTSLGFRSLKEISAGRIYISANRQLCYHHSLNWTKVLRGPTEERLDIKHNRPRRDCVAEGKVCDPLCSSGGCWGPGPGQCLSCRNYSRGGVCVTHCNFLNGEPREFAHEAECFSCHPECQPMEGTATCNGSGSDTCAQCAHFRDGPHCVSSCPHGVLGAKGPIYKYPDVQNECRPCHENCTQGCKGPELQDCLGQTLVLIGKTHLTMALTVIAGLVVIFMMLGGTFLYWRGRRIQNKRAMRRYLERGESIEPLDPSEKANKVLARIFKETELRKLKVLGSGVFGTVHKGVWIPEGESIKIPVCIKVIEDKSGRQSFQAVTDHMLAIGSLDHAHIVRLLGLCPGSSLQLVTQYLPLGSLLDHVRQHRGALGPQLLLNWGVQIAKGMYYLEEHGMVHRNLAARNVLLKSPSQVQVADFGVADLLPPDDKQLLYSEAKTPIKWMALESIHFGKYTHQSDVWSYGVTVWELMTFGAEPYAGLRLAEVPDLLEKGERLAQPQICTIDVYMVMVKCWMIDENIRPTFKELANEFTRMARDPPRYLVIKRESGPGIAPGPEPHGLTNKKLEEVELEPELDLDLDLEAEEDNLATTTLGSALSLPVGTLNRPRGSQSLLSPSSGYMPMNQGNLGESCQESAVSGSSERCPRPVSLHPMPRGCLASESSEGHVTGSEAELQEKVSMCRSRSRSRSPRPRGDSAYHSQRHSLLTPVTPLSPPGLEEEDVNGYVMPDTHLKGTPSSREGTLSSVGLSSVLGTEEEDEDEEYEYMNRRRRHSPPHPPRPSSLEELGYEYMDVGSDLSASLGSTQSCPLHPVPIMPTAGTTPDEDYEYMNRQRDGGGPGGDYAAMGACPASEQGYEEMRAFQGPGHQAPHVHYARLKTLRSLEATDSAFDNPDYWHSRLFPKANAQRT
UniProt Q15303, whole entry R711C: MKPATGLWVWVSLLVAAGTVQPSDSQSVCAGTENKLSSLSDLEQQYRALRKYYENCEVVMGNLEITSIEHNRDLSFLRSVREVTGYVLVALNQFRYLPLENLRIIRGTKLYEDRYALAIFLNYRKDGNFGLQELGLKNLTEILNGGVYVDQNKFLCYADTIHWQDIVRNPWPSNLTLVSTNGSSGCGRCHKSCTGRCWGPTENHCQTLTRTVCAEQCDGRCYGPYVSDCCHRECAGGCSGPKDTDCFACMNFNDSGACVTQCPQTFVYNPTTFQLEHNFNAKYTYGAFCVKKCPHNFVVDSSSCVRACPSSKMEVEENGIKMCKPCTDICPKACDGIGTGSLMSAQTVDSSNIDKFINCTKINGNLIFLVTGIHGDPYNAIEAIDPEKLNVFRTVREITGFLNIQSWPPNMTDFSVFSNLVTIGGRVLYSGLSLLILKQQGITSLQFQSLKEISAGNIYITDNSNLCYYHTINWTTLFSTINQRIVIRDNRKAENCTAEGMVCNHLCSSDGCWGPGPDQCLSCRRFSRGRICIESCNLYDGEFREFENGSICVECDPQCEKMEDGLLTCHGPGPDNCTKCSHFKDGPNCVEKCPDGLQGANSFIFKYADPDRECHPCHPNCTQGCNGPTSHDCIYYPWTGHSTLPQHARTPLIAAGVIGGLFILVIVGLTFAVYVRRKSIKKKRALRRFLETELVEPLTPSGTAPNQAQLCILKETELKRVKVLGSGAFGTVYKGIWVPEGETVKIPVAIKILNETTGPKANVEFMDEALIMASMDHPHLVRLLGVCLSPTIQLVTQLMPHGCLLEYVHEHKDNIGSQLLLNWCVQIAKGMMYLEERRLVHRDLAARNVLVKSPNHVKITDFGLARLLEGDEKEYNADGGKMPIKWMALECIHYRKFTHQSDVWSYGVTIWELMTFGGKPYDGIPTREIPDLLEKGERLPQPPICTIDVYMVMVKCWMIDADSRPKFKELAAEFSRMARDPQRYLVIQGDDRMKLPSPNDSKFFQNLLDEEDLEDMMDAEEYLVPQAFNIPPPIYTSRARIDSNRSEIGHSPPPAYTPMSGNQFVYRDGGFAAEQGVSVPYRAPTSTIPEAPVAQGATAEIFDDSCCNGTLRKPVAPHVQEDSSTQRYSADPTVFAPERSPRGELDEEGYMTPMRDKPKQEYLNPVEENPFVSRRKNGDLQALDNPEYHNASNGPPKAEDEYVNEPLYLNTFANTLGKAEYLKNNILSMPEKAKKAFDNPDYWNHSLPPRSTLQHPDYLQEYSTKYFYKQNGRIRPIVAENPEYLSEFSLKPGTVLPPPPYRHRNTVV
UniProt P07333, whole entry: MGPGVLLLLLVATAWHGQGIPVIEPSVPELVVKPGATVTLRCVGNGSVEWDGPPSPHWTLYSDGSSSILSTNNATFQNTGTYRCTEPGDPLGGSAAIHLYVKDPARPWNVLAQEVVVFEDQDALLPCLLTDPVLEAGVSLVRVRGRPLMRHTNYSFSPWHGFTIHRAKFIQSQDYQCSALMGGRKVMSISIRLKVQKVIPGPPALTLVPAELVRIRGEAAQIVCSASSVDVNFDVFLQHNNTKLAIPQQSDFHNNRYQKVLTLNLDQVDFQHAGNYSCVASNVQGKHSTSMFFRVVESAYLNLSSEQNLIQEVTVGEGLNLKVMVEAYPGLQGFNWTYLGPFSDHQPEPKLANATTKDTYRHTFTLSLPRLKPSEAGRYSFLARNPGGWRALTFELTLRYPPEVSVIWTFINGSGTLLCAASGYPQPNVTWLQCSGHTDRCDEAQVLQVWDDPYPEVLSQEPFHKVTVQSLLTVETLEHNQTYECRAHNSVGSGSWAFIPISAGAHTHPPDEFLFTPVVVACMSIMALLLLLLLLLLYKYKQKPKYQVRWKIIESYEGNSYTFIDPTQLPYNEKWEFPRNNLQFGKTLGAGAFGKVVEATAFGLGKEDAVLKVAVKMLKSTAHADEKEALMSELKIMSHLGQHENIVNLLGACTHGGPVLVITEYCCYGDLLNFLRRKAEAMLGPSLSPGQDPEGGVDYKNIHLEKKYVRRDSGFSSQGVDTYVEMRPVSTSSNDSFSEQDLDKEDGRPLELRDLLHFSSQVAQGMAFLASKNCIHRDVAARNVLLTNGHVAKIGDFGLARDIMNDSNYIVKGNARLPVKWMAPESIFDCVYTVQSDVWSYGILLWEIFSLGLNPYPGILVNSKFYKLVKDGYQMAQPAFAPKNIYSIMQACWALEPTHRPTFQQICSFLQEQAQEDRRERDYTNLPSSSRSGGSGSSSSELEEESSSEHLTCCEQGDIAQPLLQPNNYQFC

Key:
Assay in all cases: kinase-Nluc reporter destabilization hit call (1 = scored as downregulated) (binary); higher = compound decreases kinase abundance
Details in all cases: K562, 2-18 h
CDK7 = CDK7 (UniProt P50613)
CDK9 = CDK9 (UniProt P50750)
CHEK2 = CHEK2 (UniProt O96017)
CSK = CSK (UniProt P41240)
CSNK1A1 = CSNK1A1 (UniProt P48729)
CSNK1D = CSNK1D (UniProt P48730)
DDR1 = DDR1 (UniProt Q08345)
DYRK1B = DYRK1B (UniProt Q9Y463)
DYRK2 = DYRK2 (UniProt Q92630)
EGFR = EGFR (UniProt P00533)
EGFR_G719S = EGFR_G719S (UniProt P00533)
EGFR_G719S_T790M = EGFR_G719S_T790M (UniProt P00533)
EGFR_L718V = EGFR_L718V (UniProt P00533)
EGFR_L858R = EGFR_L858R (UniProt P00533)
EGFR_L861Q = EGFR_L861Q (UniProt P00533)
EGFR_T790M = EGFR_T790M (UniProt P00533)
EPHA2 = EPHA2 (UniProt P29317)
ERBB3 = ERBB3 (UniProt P21860)
[1] = target: ERBB4_R711C (clone: ERBB4_mut) (UniProt Q15303)
CSF1R = CSF1R (UniProt P07333)

Measured: kinase-Nluc reporter destabilization hit call

CN1CCN(c2ccc3nc(-c4c(N)c5c(F)cccc5[nH]c4=O)[nH]c3c2)CC1 [Dovitinib]
inactive: CDK7; 2.5 µM 0 | CDK9; 2.5 µM 0 | CHEK2; 2.5 µM 0 | CSK; 2.5 µM 0 | CSNK1A1; 2.5 µM 0 | CSNK1D; 2.5 µM 0 | DDR1; 2.5 µM 0 | DYRK1B; 2.5 µM 0 | DYRK2; 2.5 µM 0 | EGFR; 2.5 µM 0 | EGFR_G719S; 2.5 µM 0 | EGFR_G719S_T790M; 2.5 µM 0 | EGFR_L718V; 2.5 µM 0 | EGFR_L858R; 2.5 µM 0 | EGFR_L861Q; 2.5 µM 0 | EGFR_T790M; 2.5 µM 0 | EPHA2; 2.5 µM 0 | ERBB3; 2.5 µM 0

Cc1ccc(-n2nc(C(C)(C)C)cc2NC(=O)Nc2ccc(OCCN3CCOCC3)c3ccccc23)cc1 [Doramapimod]
inactive: CDK7; 10 µM 0 | CDK9; 10 µM 0 | CHEK2; 10 µM 0 | CSK; 10 µM 0 | CSNK1A1; 10 µM 0 | CSNK1D; 10 µM 0 | DYRK1B; 10 µM 0 | DYRK2; 10 µM 0 | EGFR; 10 µM 0 | EGFR_G719S; 10 µM 0 | EGFR_G719S_T790M; 10 µM 0 | EGFR_L718V; 10 µM 0 | EGFR_L858R; 10 µM 0 | EGFR_L861Q; 10 µM 0 | EGFR_T790M; 10 µM 0 | ERBB3; 10 µM 0 | [1]; 10 µM 0

CC(C)n1nc(-c2cc3cc(O)ccc3[nH]2)c2c(N)ncnc21 [Torkinib]
inactive: CDK7; 2.5 µM 0 | CDK9; 2.5 µM 0 | CHEK2; 2.5 µM 0 | CSF1R; 2.5 µM 0 | CSK; 2.5 µM 0 | CSNK1A1; 2.5 µM 0 | CSNK1D; 2.5 µM 0 | DDR1; 2.5 µM 0 | DYRK1B; 2.5 µM 0 | DYRK2; 2.5 µM 0 | EPHA2; 2.5 µM 0 | ERBB3; 2.5 µM 0 | [1]; 2.5 µM 0

Cc1ccc(Nc2nccc(N(C)c3ccc4c(C)n(C)nc4c3)n2)cc1S(N)(=O)=O [Pazopanib (Hydrochloride)]
inactive: CDK7; 10 µM 0 | CDK9; 10 µM 0 | CHEK2; 10 µM 0 | CSK; 10 µM 0 | CSNK1A1; 10 µM 0 | CSNK1D; 10 µM 0 | DDR1; 10 µM 0 | DYRK1B; 10 µM 0 | DYRK2; 10 µM 0 | EGFR; 10 µM 0 | EGFR_G719S; 10 µM 0 | EGFR_G719S_T790M; 10 µM 0 | EGFR_L718V; 10 µM 0 | EGFR_L858R; 10 µM 0 | EGFR_L861Q; 10 µM 0 | EGFR_T790M; 10 µM 0 | EPHA2; 10 µM 0 | ERBB3; 10 µM 0 | [1]; 10 µM 0

CC1(C)C(=O)N([C@H]2CCc3c(O)cccc32)c2nc(Nc3cccc(CN4CCCC4)c3)ncc21
inactive: CDK7; 2.5 µM 0 | CDK9; 2.5 µM 0 | CHEK2; 2.5 µM 0 | CSK; 2.5 µM 0 | CSNK1A1; 2.5 µM 0 | CSNK1D; 2.5 µM 0 | DDR1; 2.5 µM 0 | DYRK1B; 2.5 µM 0 | DYRK2; 2.5 µM 0 | EGFR; 2.5 µM 0 | EGFR_G719S; 2.5 µM 0 | EGFR_G719S_T790M; 2.5 µM 0 | EGFR_L718V; 2.5 µM 0 | EGFR_L858R; 2.5 µM 0 | EGFR_L861Q; 2.5 µM 0 | EGFR_T790M; 2.5 µM 0 | EPHA2; 2.5 µM 0 | ERBB3; 2.5 µM 0 | [1]; 2.5 µM 0

CCOc1nc(NC(=O)Cc2cc(OC)ccc2OC)cc(N)c1C#N [JNK Inhibitor VIII]
inactive: CDK7; 10 µM 0 | CDK9; 10 µM 0 | CHEK2; 10 µM 0 | CSF1R; 10 µM 0 | CSK; 10 µM 0 | CSNK1D; 10 µM 0 | DDR1; 10 µM 0 | DYRK1B; 10 µM 0 | DYRK2; 10 µM 0 | EPHA2; 10 µM 0 | ERBB3; 10 µM 0 | [1]; 10 µM 0

O=C(NCCCNc1nc(Nc2cccc(CN3CCOCC3)c2)ncc1C1CC1)C1CCC1
inactive: CDK7; 10 µM 0 | CDK9; 10 µM 0 | CHEK2; 10 µM 0 | CSK; 10 µM 0 | CSNK1A1; 10 µM 0 | CSNK1D; 10 µM 0 | DDR1; 10 µM 0 | DYRK1B; 10 µM 0 | DYRK2; 10 µM 0 | EGFR; 10 µM 0 | EGFR_G719S; 10 µM 0 | EGFR_G719S_T790M; 10 µM 0 | EGFR_L718V; 10 µM 0 | EGFR_L858R; 10 µM 0 | EGFR_L861Q; 10 µM 0 | EGFR_T790M; 10 µM 0 | EPHA2; 10 µM 0 | ERBB3; 10 µM 0 | [1]; 10 µM 0

CC[C@@H]1C(=O)N(C)c2cnc(Nc3ccc(C(=O)NC4CCN(C)CC4)cc3OC)nc2N1C1CCCC1
inactive: CDK7; 10 µM 0 | CDK9; 10 µM 0 | CHEK2; 10 µM 0 | CSF1R; 10 µM 0 | CSK; 10 µM 0 | CSNK1A1; 10 µM 0 | DDR1; 10 µM 0 | DYRK1B; 10 µM 0 | DYRK2; 10 µM 0 | EPHA2; 10 µM 0 | ERBB3; 10 µM 0 | [1]; 10 µM 0

COc1cc2ncnc(Nc3cccc(Br)c3)c2cc1OC
inactive: CDK7; 10 µM 0 | CDK9; 10 µM 0 | CHEK2; 10 µM 0 | CSF1R; 10 µM 0 | CSK; 10 µM 0 | CSNK1A1; 10 µM 0 | CSNK1D; 10 µM 0 | DDR1; 10 µM 0 | DYRK1B; 10 µM 0 | DYRK2; 10 µM 0 | EPHA2; 10 µM 0 | ERBB3; 10 µM 0 | [1]; 10 µM 0

Cc1[nH]c(/C=C2\C(=O)Nc3ccc(F)cc32)c(C)c1C(=O)NC[C@H](O)CN1CCOCC1
inactive: CDK7; 2.5 µM 0 | CDK9; 2.5 µM 0 | CHEK2; 2.5 µM 0 | CSK; 2.5 µM 0 | CSNK1A1; 2.5 µM 0 | CSNK1D; 2.5 µM 0 | DDR1; 2.5 µM 0 | DYRK1B; 2.5 µM 0 | DYRK2; 2.5 µM 0 | EGFR; 2.5 µM 0 | EGFR_G719S; 2.5 µM 0 | EGFR_G719S_T790M; 2.5 µM 0 | EGFR_L718V; 2.5 µM 0 | EGFR_L858R; 2.5 µM 0 | EGFR_L861Q; 2.5 µM 0 | EGFR_T790M; 2.5 µM 0 | EPHA2; 2.5 µM 0 | ERBB3; 2.5 µM 0 | [1]; 2.5 µM 0
